No constants are given. Whether binding was seen depends on the method and setting. Binding seen in cells or lysates may run through a third protein. Some results given as binding are weak or reduced against the parent protein; the word gives no strength. Tags and fused reporters may be left off the sequences shown.
T1: N-terminally tagged Neurospora crassa eIF3h (Neurospora crassa) (UniProt Q7S9Y9)
T1 sequence: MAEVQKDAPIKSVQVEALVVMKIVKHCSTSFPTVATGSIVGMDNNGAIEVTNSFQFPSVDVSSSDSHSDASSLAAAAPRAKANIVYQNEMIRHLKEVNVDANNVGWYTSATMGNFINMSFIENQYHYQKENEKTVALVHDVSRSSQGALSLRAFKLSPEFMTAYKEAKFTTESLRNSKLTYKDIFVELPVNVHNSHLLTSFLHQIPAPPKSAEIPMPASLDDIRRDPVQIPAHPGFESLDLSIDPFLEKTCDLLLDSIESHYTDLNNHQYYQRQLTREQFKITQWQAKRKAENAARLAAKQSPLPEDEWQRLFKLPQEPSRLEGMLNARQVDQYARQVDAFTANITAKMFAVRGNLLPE

B1: Neurospora crassa eIF3i (protein, UniProt Q7RXH4 1-346)
chain: MRPILLSGHERALTQIKYNRDGDLLFSVSKDQQICVWFAHNGERLGTYHGHQGAIWTIDVDPTSTILASGSADNTIRLWEIKTGRLLKTWDFPTAVKRVEFSEDGSKLLGVTEKRMGHLGTIVVLDIKLDVDAEQSDEKAMTIVCEDSKATVAGWSYLSKYIIAGHEDGSVSQFDGKNGDLLYNIPIHELNQPITDLQWSHDRTYFITASKDKTSKLITAKDLEVLKTYPADTPLNSATITRKKDFVILGGGQAAMDVTTTSARQGKFEARFYHKIFESEIGRVRGHFGPLNTVAADPTGKSYASGGEDGYVRIHHFDKGYFDFMYEVERERQNKLNQQQQQTISA
B2: Neurospora crassa eIF3f (protein, UniProt Q9P748 1-369)
chain: MAVDQESFVHLSRPLAPNVLGFGVSNAPLTVNIQPQAVFSIIDHAVRRDDRDTQSTRVIGALVGVRSEDGSEVEVRSTFAIPHTENEDQVEVDVEYQKNMLALTLKANPRETLLGWYTTSHELNSFSALIQNFFASPETGTFPHPAVHLTIGTEAGATIDTKTYISAPVAVSPERAAESCLFIEVPHKLLFTDAERGALGSVAAAADAESRSAPVVSDIENLAQALETVSDLLERVSGFVGEVLDEERDGNHALGQYLMNALSLAPKVSNLAIENDFNNHIQDVLMVSYLANTIRTQIELSQRLATAKLDEGKEGGEKKDGEGAEGDKKTDGQRGQRGQGGKRGGRSGGAGGRGGREQREPREPREAAE
B3: Neurospora crassa eIF3c (protein, UniProt Q7SBD4 1-872)
chain: MSRFFRGGDDSSTDSSSEEEEVYTSEEEEEKVQAEDESSSEEESDEEESDEESSSDEEEGTKKKGASRFLQSDDESEEEEEEQSDDEATTKVKSAKDKRFDELESTISQIQNGQKINDWSLIANEFDKLNRQVVKLQDGSKAPKSYIKAIADLEDFMNETLAKQKVTPKKMNATNARGLNAVKQRIRKNNKEYQTQIDAYRKDADAFMESDDEVAAPKVVSKVRFEAPVVSAEQQEEDDKGFSTVDSRGKVVQYTPESILKHLRAIIESRGKKNTDRLEQIKVMETLNKVVPITPYQKIRVLQTLISARFDLGAGGAAQMPLDQWKAAERDLASLLEILEKEKDHVVVEGAEEWDDDDKLPTIPEGEKYLKVPGSVVSLIERLDDELTRSLQAIDPHTSEYIDRLTDEGSLYNTIFRGLLYYEHLRKDASLEVPQESLNRIIQRRLDHVYYKPAQVVKILEENAWKQVSAEADSEITPRSQSGDAGKLINILSNYLFENSEGIIRARAMLCQIYFLALHDEYYKSRDLMLTSHLQETIANFDIATQILYNRTLVQVGLCAFRKGLVYDAQNTLQEICGSGRQKELLAQGVMIQRYSQVTPEQERLEKQRQLPFHMHINLELLECVYLTCSMLLEIPLLAQTGSSPDVKKRIISKTYRRMLEYHERQIFTGPPENTRDHVMQASKALAAGEWKKATDFIHSIKIWDLMPNTEGIKTMLAKQIQEEGLRTYLFTYAPFYDTLAIATLSSMFELDSRKVSAVVSKMISHEELAAALDQVTETVIFRKGVELSRLQSLALTLSDKASSLIETNERTLEQKTQGSANAFSRKDNRGGGQRGGGQRGGRGGARTGGNPQRQAGGTQFTGGALGNAVRG
B4: Neurospora crassa eIF3g (protein, UniProt Q6MFP4 1-297)
chain: MAAVQQKHDWADDDELEETSTELPPPQKITNKDGSTTIIEYRLNDNGQKVKTTRRIRYITHREVVNPRVAERKSWTKFGLSVKDGAGPAPDTTSVGENIIFKPSFNWRQEAKDESKDPNAQAMKDKLKDKKVKCRICNGEHFTARCPYKDTMAPIGEAGAAADVAASAADEAAAASQGAAGAGKKGSYVPPALRGAGGAAAAGERMGGKYGERDDLATLRVTNVSEMAEEQELRDMFERFGRVTRVFLAKDRDTGLAKGFAFISFADRSDAVKACAKMDGFGFRHLILRVEFAKKAA
B5: Neurospora crassa eIF3e (protein, UniProt Q7S519 1-443)
chain: MASTSPATTNGDVAPANYDLVLKLAPHLDRHMIFPLLEFNAGRLKEDETDKAREILAAKYALLKKTNMTDYVANLYCELEGLKEPPAEYAERRQKVFHQLEKYEQETAKITELLQRDDVVNNLRSDKVANLEFLKKEHDVTIDMVNALYDFGQLQYSCGNYADASELLYRFRVLSTDNDKVSYATWGRLACEILTMNWESAMEELQKVRESIDTRLANNPLAQLQHRTELVHWALFPLFNYDKAREPLLDLFFNAGFINTIQANSPWILRYLTVAVITNRGRAKNAGVHQKQMKDVVRIVKQEAYEYQDPITRFVHALCIDFDFEEAQQQLVLAEEVLRSDFFLLAHADDFVDSARHLIFESYCKIHARISLKDLSARLGLNNDDAEKWIVNLIRDTRLDAKIDYKEGTVVMNHPPSSVYQQVIERTKGGFFRTQVLTAAVAR
B6: Neurospora crassa eIF3a (protein, UniProt Q7RWT1 1-1059)
chain: MPPPPHQKPENVLKRAHELIGVNQAPAALTLLHEHITSKRSRNVPIASLEPVMLLLVELSVEQKKGKLAKDALYQYKNIAQNTNVATIELVLKKFIELAAEKVTAAQAKADEVQSSIEATTSNIDDLEASETPESILLATVSGEQSRDRTDRAIVTPWLKFLWEAYRTVLDILRNNARLEVLYQSTAMQAFDFCLKYTRKTEFRRLCELLRNHVQTAAKYSAQMHAINLNDPDTLQRHLETRFQQLNVAVELELWQEAFRSVEDIHTLLSLSKRPAKNVMMANYYEKLTRIFLVGENYLFHAAAWARYYNLLRQSAALIASGHSKKADNPACSDADLQRAATFVILSALSIPVISTSRSRGAMVDFDEARKNKNSRLTHLLGMAQAPTRAGLFRDALSKSLLRRAQPQIRDLYNILEVDFHPLSICQKISPILAEIGADAEMQKYILPLQQVILTRLFQQLSQVYETVDLEFVESLAQFPEPFQVTRGTIEKFIMNGNKKGDLAIRMDHATGVLSFDADVFSSAKAVHAGSSAGSAESETGSVQRLQSTPSQIVRSQLTRLAEALYTTCRYIDPSFNEARIKARDEALARAKAGAEKEHQEVLARKEIIQTRKDKASEAQAQKEKENARKKLLQEQALQQAEAARLAEEQKLREAKRLANEREQIKRKEVEALLKDMKLEELQGEDIETLDSNKIRMIKLQQLEREKNSVAEKLRITGKRLDHLERAFRKEEAKKLPEDYAKQRERDLAAYERTKAQTLKEAELKHKADVELKHRLTRLMPFYESFRSDLHERRRDEFEKRRRDAEREMEKQINARRKEAREKRIREKREREERERQLREAEERAAREKEEERKRLEARREELQRLKEEKEKEREKLREIAARQQQREEEAMARRKAEKEKLAATPSAYRPPAAAERTEAAAPPRIALAGNRPSWREREAAKAASGETAAPAPAAAEPVAERPRAAAPPAERTEAAAPPRLALAGNRPSWREREAAKAASGGGNAAAVPERSAPPLRAAAPQRAGSGRPENDRDVPPAEPLKASGAPGKYVPKWRREGA
B7: Neurospora crassa eIF3b (protein, UniProt Q7S464 1-747)
chain: MAPSFDHLRDEDLDEDDFDVDEVDISDIREKYEVQLEQGYDAFVVVDGLPEVNEEQKPKLVKFLLKKLNTVGKTREDLIFMPMGEDGKSLRFAFVEYSSPAEAAAACRQLDLVPLDKKHTLRVNKLTDVDRYGREGRIDDEYTPPKIEEFQEKEHLRSFMADPSGRGRDQFVMFRGESVGVFWNNEKDTPENIVDRQHWTETFVQWSPLGTYLTSVHAQGVQLWGGPSWTRQRRFAHPFVNLVAFSPNEKYLVTWSNRPISIPEEGHPALSVEDDGKNYVIWDIETSKPLRSFAQLDTPAAAEGEAPKKAPKFPWPAFKWSADDKYVARLNPGQSISVYELPRMNLLDKTAIKIEGVVDFDWAPATVQRDGVKSYEQLFCFWTPEIGSNPARVGLMSIPSKQVVRSLNLFSVSDAKLHWQSEGAYLCVKVDRHSKSKKSQATTLEIFRVKEKGVPVEVVDTIKDTVINFAWEPKGDRFVIITTTEPVGATAVPPKTSVAFFCPEKAKGNAVGNFKHLRTLEKKNSNAIYWSPKGRFVVVATVANTQSSDLDFYDLDFEGEKPESDKDLTANLQLMNTADHYGVTDVEWDPSGRFVATWASAWKHSMENGYHLYDFKGEQLREEAIEKFKQFQWRPRPATLLSKEEQKAIRRNLREYSRIFEQEDAERISSADVAVVEARRRLLEEWFAWREAIRQEVAEEREIYGLPADPVADLIKAKTPELATDQEEQVIEEIMEEVLEETEEIVQ

Each binder was assayed against T1, N-terminally tagged Neurospora crassa eIF3h (Neurospora crassa) (assay: co-IP; anti-FLAG affinity purification from N. crassa extracts, FLAG peptide elution, Coomassie gel; N-terminally tagged eIF3h in ΔeIF3h, N-terminally tagged eIF3k in ΔeIF3k, or heterokaryon with N-terminally tagged eIF3k and eIF3l (all 12 subunits present)).

binding, binds:
B1
B2
B3
B4
B5
B6
B7

From paper PMC3826745
